PubChem BioAssay AID1259308 | NCATS, 2017

Assay: 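Genes whose loss raises luciferase production in HEK293 cells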 (primary screen)
Cell system: human HEK293 embryonic kidney cells stably expressing firefly luciferase (HEK-CMV-Luc2-Hygro)
Knock-down reagent: single siRNA against human genes, 0.8 pmol siRNA per well
Timing: 72 h
Detection: 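Reporter luminescence and viable-cell signal on separate replicate plates, given as percent of non-targeting control and median/MAD z-scores, plus per-cell luciferase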
Scale: total luciferase, z-score and total luciferase, % of control: higher = more reporter protein produced; luciferase per cell, z-score: higher = more reporter output per viable cell; viable cells, % of control: higher = more viable cells
Active means: 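An siRNA counts as active if its total luciferase robust z-score exceeds 3; genes with two or more such siRNAs out of three were retested with fresh siRNAs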
Meaning of the calls: active = raised luciferase; inactive = no rise
This is a random part of about 59,000 reagents tested. About 1,510 of them (2.6%) were called active. 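Calls use total luciferase alone and ignore viability, so some active siRNAs may act by altering cell number.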 The numbers tell different reagents against one gene apart.

no.	Gene	reagent no.	total luciferase, z-score	total luciferase, % of control	luciferase per cell, z-score	viable cells, % of control	call
1	TAGLN3 (GeneID 29114)	1	0.241	86.7	0.311	89.3	inactive
2	TAGLN3 (GeneID 29114)	2	1.02	102	1.56	75.8	inactive
3	TAGLN3 (GeneID 29114)	3	-0.0996	79.9	-0.897	113	inactive
4	NEDD4L (GeneID 23327)	1	0.59	93.6	0.467	92.5	inactive
5	NEDD4L (GeneID 23327)	2	0.109	84	-0.291	101	inactive
6	NEDD4L (GeneID 23327)	3	-0.116	79.6	-1.03	117	inactive
7	ZNF227 (GeneID 7770)	1	-0.73	67.4	-0.211	79.6	inactive
8	ZNF227 (GeneID 7770)	2	-1.08	60.3	-1.3	95	inactive
9	ZNF227 (GeneID 7770)	3	-0.626	69.4	-0.969	100	inactive
10	OVOL2 (GeneID 58495)	1	-2.39	34.4	-1.83	62.3	inactive
11	OVOL2 (GeneID 58495)	2	-0.185	78.2	1.36	61.1	inactive
12	OVOL2 (GeneID 58495)	3	0.83	98.4	1.13	81.6	inactive
13	PMS1 (GeneID 5378)	1	-0.533	71.3	-1.62	122	inactive
14	PMS1 (GeneID 5378)	2	-1.01	61.8	-0.877	86.9	inactive
15	PMS1 (GeneID 5378)	3	0.831	98.4	0.583	94.3	inactive
16	LOC730338 (GeneID 730338)	1	0.2	85.9	0.927	75.2	inactive
17	LOC730338 (GeneID 730338)	2	-0.386	74.2	-0.333	90.5	inactive
18	LOC730338 (GeneID 730338)	3	-1.81	45.8	-2.24	92.3	inactive
19	EIF3C (GeneID 8663)	1	-1.95	43.1	-1.59	73.3	inactive
20	EIF3C (GeneID 8663)	2	-2.62	29.7	-2.5	64.2	inactive
21	EIF3C (GeneID 8663)	3	-1.55	51.1	-1.54	85.6	inactive
22	VASN (GeneID 114990)	1	-0.441	73.1	0.744	67.2	inactive
23	VASN (GeneID 114990)	2	-1.39	54.2	-1.62	92.9	inactive
24	VASN (GeneID 114990)	3	-0.303	75.9	-0.377	93.6	inactive
25	PDLIM2 (GeneID 64236)	1	0.894	99.7	1.27	79.6	inactive
26	PDLIM2 (GeneID 64236)	2	-1.8	46.2	-1.97	86.7	inactive
27	PDLIM2 (GeneID 64236)	3	0.00386	82	0.0564	90.2	inactive
28	CD80 (GeneID 941)	1	0.718	96.2	0.252	101	inactive
29	CD80 (GeneID 941)	2	-0.933	63.3	-1.71	111	inactive
30	CD80 (GeneID 941)	3	0.00111	81.9	-0.135	94.8	inactive
31	LARP4 (GeneID 113251)	1	0.256	87	-0.153	101	inactive
32	LARP4 (GeneID 113251)	2	1.2	106	1.48	80	inactive
33	LARP4 (GeneID 113251)	3	-0.259	76.7	-0.457	96.7	inactive
34	AADAT (GeneID 51166)	1	0.991	102	1.56	75.2	inactive
35	AADAT (GeneID 51166)	2	2.53	132	1.48	100	inactive
36	AADAT (GeneID 51166)	3	2.02	122	1.65	88.3	inactive
37	ACP4 (GeneID 93650)	1	-1.12	59.6	-0.575	77.6	inactive
38	ACP4 (GeneID 93650)	2	0.26	87.1	-0.879	123	inactive
39	ACP4 (GeneID 93650)	3	-0.649	69	-1.01	100	inactive
40	SNRNP200 (GeneID 23020)	1	2.49	131	2.69	72.3	inactive
41	SNRNP200 (GeneID 23020)	2	8.01	241	5.4	65.1	active
42	SNRNP200 (GeneID 23020)	3	2.38	129	3.37	59.5	inactive
43	TRIM67 (GeneID 440730)	1	-0.242	77.1	-0.548	99.5	inactive
44	TRIM67 (GeneID 440730)	2	-0.54	71.1	-0.538	91.6	inactive
45	TRIM67 (GeneID 440730)	3	-1.46	52.8	-0.71	71.1	inactive
46	TRIP13 (GeneID 9319)	1	0.194	85.7	0.963	74.4	inactive
47	TRIP13 (GeneID 9319)	2	1	102	-0.138	118	inactive
48	TRIP13 (GeneID 9319)	3	0.806	97.9	1.24	79	inactive
49	JAKMIP2 (GeneID 9832)	1	2.91	140	3.39	64	inactive
50	JAKMIP2 (GeneID 9832)	2	0.652	94.9	0.6	90.5	inactive
51	JAKMIP2 (GeneID 9832)	3	1.6	114	1.21	92.4	inactive
52	NTPCR (GeneID 84284)	1	-0.822	65.5	-0.725	88.6	inactive
53	NTPCR (GeneID 84284)	2	0.679	95.4	0.714	88.3	inactive
54	NTPCR (GeneID 84284)	3	-0.634	69.3	-0.588	90.4	inactive
55	GDPD3 (GeneID 79153)	1	-1.92	43.6	-1.67	75.6	inactive
56	GDPD3 (GeneID 79153)	2	-0.568	70.6	-0.744	96	inactive
57	GDPD3 (GeneID 79153)	3	5.92	200	4.93	60.9	active

Called active (from the list above):
Gene	reagent no.	total luciferase, z-score	total luciferase, % of control	luciferase per cell, z-score	viable cells, % of control	call
SNRNP200 (GeneID 23020)	2	8.01	241	5.4	65.1	active
GDPD3 (GeneID 79153)	3	5.92	200	4.93	60.9	active
